Assay results published in publication PMC11229372, “New Drosophila promoter-associated architectural protein Mzfp1 interacts with CP190 and is required for housekeeping gene expression and insulator activity”.
Results are given in words; binding and its absence hold for the method and conditions named. For some assays here: In cells and extracts the contact can be indirect. Some results given as binding are weak or reduced against the parent protein; the word gives no strength. Sequences can lack the tags named with a protein.

T1: CP190 fused to the GAL4 DNA-binding domain (Drosophila) (UniProt Q24478)
T1 sequence: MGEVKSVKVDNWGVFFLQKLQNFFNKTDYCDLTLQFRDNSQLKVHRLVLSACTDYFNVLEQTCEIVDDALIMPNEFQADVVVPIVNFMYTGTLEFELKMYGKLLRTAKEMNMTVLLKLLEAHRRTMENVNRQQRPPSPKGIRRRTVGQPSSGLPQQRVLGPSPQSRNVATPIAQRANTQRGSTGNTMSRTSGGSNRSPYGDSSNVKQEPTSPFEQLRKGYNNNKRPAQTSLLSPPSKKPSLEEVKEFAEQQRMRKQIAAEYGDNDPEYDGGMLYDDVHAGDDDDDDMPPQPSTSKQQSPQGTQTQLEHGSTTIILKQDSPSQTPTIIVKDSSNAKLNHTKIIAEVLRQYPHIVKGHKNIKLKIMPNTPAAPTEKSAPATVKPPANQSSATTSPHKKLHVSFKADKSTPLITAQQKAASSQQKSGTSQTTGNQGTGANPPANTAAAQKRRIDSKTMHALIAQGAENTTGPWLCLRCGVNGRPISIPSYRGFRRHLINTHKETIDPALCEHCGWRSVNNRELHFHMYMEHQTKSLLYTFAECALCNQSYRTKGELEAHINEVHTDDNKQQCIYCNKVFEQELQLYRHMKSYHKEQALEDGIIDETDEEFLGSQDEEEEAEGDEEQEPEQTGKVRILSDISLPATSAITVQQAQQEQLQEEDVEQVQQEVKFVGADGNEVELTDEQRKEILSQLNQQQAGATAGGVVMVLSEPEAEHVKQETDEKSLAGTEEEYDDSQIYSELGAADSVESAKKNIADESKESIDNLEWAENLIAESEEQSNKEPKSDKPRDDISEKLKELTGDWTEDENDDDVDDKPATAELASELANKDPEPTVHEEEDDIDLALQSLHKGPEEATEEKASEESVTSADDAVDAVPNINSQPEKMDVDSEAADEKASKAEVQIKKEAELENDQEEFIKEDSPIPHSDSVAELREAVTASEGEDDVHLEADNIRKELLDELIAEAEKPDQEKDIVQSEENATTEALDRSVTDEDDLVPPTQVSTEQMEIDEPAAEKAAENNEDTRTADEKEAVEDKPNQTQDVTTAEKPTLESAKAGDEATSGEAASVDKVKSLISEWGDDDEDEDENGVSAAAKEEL

T2: CP190 (expressed in S2 cells) (Drosophila) (UniProt Q24478)
T2 sequence: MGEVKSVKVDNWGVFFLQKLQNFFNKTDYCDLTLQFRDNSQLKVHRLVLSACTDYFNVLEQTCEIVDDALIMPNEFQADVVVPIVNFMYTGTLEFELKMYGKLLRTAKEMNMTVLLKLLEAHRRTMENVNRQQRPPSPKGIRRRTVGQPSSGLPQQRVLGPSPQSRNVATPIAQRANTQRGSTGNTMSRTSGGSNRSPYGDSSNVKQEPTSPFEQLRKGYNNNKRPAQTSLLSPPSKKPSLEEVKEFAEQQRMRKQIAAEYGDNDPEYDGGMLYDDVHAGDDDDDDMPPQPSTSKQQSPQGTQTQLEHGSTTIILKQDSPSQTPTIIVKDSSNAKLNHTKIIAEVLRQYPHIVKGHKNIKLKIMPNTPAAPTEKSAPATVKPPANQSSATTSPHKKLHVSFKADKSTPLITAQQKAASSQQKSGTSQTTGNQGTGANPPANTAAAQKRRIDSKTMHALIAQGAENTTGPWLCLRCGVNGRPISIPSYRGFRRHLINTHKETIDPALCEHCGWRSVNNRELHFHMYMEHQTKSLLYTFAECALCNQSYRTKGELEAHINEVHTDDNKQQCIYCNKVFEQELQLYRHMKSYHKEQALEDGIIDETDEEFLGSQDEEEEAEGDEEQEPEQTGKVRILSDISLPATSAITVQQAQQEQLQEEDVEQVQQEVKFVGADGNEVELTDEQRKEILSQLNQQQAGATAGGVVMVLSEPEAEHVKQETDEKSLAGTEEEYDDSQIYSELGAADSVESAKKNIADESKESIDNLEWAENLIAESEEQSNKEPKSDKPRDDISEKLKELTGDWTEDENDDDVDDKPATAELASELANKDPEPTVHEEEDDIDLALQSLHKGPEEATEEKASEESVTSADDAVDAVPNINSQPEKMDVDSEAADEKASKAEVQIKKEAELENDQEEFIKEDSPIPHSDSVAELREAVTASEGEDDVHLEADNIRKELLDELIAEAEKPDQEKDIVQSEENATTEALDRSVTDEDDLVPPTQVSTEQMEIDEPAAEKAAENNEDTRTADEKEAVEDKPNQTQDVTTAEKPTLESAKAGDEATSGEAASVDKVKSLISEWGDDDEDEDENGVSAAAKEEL


Experiments:
[1] = biological target: T1, CP190 fused to the GAL4 DNA-binding domain (Drosophila); assay: two-hybrid; yeast two-hybrid of Mzfp1 with CP190, Z4 and Chrom; data not shown
[2] = biological target: T2, CP190 (expressed in S2 cells) (Drosophila); assay: co-IP; S2 cells co-transfected with 3xHA-Mzfp1 and CP190 plasmids; extract precipitated with anti-CP190 on Protein G magnetic beads (IgG as control), overnight 4 C, washes with 150 and 300 mM NaCl; Western blot for HA
[3] = biological target: T1, CP190 fused to the GAL4 DNA-binding domain (Drosophila); assay: two-hybrid; Mzfp1 variants fused to GAL4 activation domain (pGAD424), CP190 and its fragments fused to GAL4 DNA-binding domain (pGBT9); S. cerevisiae PJ69-4A; growth on medium lacking tryptophan, leucine, histidine and adenine at 30 C, assessed after 3 days

| Binder | binding [2] | binding [3] | further results |
| --- | --- | --- | --- |
| Madf and Zinc-Finger Protein 1 (Mzfp1), fused to the GAL4 activation domain (protein, UniProt Q1LZ24 1-586) MELCGNVMTNSKYEMFRLKCLYCSIESELKDWELFIVHVKSAHYCEDEDVRINEIKEDTEELYSVVDAADPAIAYGPDEFFEVIENSNGVDQWMEADSKDIQYEEDATAWSAATNNSWEFGPGGSSLELPAGKEVTQMDESSQNHIPLNTDDDDVDCSDFFMSEDDLAPPRKPGRPPRRTRPGQVFKFKVSFIRSNPRVLHLIQAYKEHPCLWNPSDEHYQDEPARSMAYEAIMERMDRKANVLFTVEELKKTLEQLHVQYTLALETKQRGKLVGLAARYFAKCEFLSVAPVVTPRENEEDNDLTAIKLNFKEENLITTSFIETYANYPVLYNQALPDFGSIEIRADAFKRMAKEFQPVVKANETDVYIAVNKLRRWLYDAIRRLKSKELIQKCSKQEVQYLQMCSFLPAKGSESQVLYCDYCDKRFHGDYNLRVHIVKAHEVGDLPYLCSFCPRRFDRHVDMDRHKLRSHFERKLKCQYCEKSFAVDTDLKVHTLIHTGERPHVCDICGKTFRLKLLLDHHVNGVHLNIRPYSCNMCTKTFRKKFELANHIKGHLNIRDKKCEYCDATFYDHSSLSRHRRSHRSE | – | – | binding [1]: binds |
| 3×HA-tagged Mzfp1 (wild-type) (protein, UniProt Q1LZ24 1-586) MELCGNVMTNSKYEMFRLKCLYCSIESELKDWELFIVHVKSAHYCEDEDVRINEIKEDTEELYSVVDAADPAIAYGPDEFFEVIENSNGVDQWMEADSKDIQYEEDATAWSAATNNSWEFGPGGSSLELPAGKEVTQMDESSQNHIPLNTDDDDVDCSDFFMSEDDLAPPRKPGRPPRRTRPGQVFKFKVSFIRSNPRVLHLIQAYKEHPCLWNPSDEHYQDEPARSMAYEAIMERMDRKANVLFTVEELKKTLEQLHVQYTLALETKQRGKLVGLAARYFAKCEFLSVAPVVTPRENEEDNDLTAIKLNFKEENLITTSFIETYANYPVLYNQALPDFGSIEIRADAFKRMAKEFQPVVKANETDVYIAVNKLRRWLYDAIRRLKSKELIQKCSKQEVQYLQMCSFLPAKGSESQVLYCDYCDKRFHGDYNLRVHIVKAHEVGDLPYLCSFCPRRFDRHVDMDRHKLRSHFERKLKCQYCEKSFAVDTDLKVHTLIHTGERPHVCDICGKTFRLKLLLDHHVNGVHLNIRPYSCNMCTKTFRKKFELANHIKGHLNIRDKKCEYCDATFYDHSSLSRHRRSHRSE | binds | – | – |
| 3×HA-tagged Mzfp1(Δ152-194) (protein, UniProt Q1LZ24) MELCGNVMTNSKYEMFRLKCLYCSIESELKDWELFIVHVKSAHYCEDEDVRINEIKEDTEELYSVVDAADPAIAYGPDEFFEVIENSNGVDQWMEADSKDIQYEEDATAWSAATNNSWEFGPGGSSLELPAGKEVTQMDESSQNHIPLNTDSNPRVLHLIQAYKEHPCLWNPSDEHYQDEPARSMAYEAIMERMDRKANVLFTVEELKKTLEQLHVQYTLALETKQRGKLVGLAARYFAKCEFLSVAPVVTPRENEEDNDLTAIKLNFKEENLITTSFIETYANYPVLYNQALPDFGSIEIRADAFKRMAKEFQPVVKANETDVYIAVNKLRRWLYDAIRRLKSKELIQKCSKQEVQYLQMCSFLPAKGSESQVLYCDYCDKRFHGDYNLRVHIVKAHEVGDLPYLCSFCPRRFDRHVDMDRHKLRSHFERKLKCQYCEKSFAVDTDLKVHTLIHTGERPHVCDICGKTFRLKLLLDHHVNGVHLNIRPYSCNMCTKTFRKKFELANHIKGHLNIRDKKCEYCDATFYDHSSLSRHRRSHRSE | binds weakly | – | – |

Further lines, with some results ahead:

| binding [2] | binding [3] | Binder | further results |
| --- | --- | --- | --- |
| – | binds | Mzfp1(1–200) fused to the GAL4 activation domain (domain or fragment, UniProt Q1LZ24 1-200) MELCGNVMTNSKYEMFRLKCLYCSIESELKDWELFIVHVKSAHYCEDEDVRINEIKEDTEELYSVVDAADPAIAYGPDEFFEVIENSNGVDQWMEADSKDIQYEEDATAWSAATNNSWEFGPGGSSLELPAGKEVTQMDESSQNHIPLNTDDDDVDCSDFFMSEDDLAPPRKPGRPPRRTRPGQVFKFKVSFIRSNPRVL | – |
| – | binds | Mzfp1(Δ161–194) fused to the GAL4 activation domain (protein, UniProt Q1LZ24) MELCGNVMTNSKYEMFRLKCLYCSIESELKDWELFIVHVKSAHYCEDEDVRINEIKEDTEELYSVVDAADPAIAYGPDEFFEVIENSNGVDQWMEADSKDIQYEEDATAWSAATNNSWEFGPGGSSLELPAGKEVTQMDESSQNHIPLNTDDDDVDCSDFSNPRVLHLIQAYKEHPCLWNPSDEHYQDEPARSMAYEAIMERMDRKANVLFTVEELKKTLEQLHVQYTLALETKQRGKLVGLAARYFAKCEFLSVAPVVTPRENEEDNDLTAIKLNFKEENLITTSFIETYANYPVLYNQALPDFGSIEIRADAFKRMAKEFQPVVKANETDVYIAVNKLRRWLYDAIRRLKSKELIQKCSKQEVQYLQMCSFLPAKGSESQVLYCDYCDKRFHGDYNLRVHIVKAHEVGDLPYLCSFCPRRFDRHVDMDRHKLRSHFERKLKCQYCEKSFAVDTDLKVHTLIHTGERPHVCDICGKTFRLKLLLDHHVNGVHLNIRPYSCNMCTKTFRKKFELANHIKGHLNIRDKKCEYCDATFYDHSSLSRHRRSHRSE | – |
